According to patent US7851436:
These are yes or no findings as the source states them, for the method shown. Binding seen in cells or lysates may run through a third protein. Some results given as binding are weak or reduced against the parent protein; the word gives no strength.

By UniProt entry, the sequences of proteins in these tests, tags left out. Where a name states a change or a piece, a line headed by the entry shows the natural chain unless it says otherwise.
UniProt P06756: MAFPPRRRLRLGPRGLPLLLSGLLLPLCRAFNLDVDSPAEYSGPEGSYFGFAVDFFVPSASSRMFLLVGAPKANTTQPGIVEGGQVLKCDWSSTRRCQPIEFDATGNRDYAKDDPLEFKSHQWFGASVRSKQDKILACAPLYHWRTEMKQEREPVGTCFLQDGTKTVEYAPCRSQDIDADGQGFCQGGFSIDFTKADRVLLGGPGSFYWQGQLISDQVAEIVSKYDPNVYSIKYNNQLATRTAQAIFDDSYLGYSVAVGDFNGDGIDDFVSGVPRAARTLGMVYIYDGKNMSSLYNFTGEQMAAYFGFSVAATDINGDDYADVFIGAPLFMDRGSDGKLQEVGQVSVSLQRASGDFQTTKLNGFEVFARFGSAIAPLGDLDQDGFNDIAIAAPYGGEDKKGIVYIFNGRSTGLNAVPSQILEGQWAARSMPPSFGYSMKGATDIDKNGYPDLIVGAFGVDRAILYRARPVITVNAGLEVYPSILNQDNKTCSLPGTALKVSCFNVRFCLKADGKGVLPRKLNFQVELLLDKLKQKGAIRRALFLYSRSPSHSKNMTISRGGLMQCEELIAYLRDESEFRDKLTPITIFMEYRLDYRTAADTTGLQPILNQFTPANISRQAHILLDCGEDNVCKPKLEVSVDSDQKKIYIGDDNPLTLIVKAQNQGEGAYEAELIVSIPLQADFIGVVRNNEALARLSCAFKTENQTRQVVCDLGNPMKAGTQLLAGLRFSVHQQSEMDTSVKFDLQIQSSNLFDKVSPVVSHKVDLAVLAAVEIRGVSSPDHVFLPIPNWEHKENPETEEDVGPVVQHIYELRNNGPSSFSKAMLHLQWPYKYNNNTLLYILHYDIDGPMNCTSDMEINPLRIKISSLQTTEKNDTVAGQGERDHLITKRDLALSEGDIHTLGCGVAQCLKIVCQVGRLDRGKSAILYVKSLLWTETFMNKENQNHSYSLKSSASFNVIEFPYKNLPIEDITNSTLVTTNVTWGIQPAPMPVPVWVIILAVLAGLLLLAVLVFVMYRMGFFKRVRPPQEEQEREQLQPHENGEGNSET
UniProt P18084: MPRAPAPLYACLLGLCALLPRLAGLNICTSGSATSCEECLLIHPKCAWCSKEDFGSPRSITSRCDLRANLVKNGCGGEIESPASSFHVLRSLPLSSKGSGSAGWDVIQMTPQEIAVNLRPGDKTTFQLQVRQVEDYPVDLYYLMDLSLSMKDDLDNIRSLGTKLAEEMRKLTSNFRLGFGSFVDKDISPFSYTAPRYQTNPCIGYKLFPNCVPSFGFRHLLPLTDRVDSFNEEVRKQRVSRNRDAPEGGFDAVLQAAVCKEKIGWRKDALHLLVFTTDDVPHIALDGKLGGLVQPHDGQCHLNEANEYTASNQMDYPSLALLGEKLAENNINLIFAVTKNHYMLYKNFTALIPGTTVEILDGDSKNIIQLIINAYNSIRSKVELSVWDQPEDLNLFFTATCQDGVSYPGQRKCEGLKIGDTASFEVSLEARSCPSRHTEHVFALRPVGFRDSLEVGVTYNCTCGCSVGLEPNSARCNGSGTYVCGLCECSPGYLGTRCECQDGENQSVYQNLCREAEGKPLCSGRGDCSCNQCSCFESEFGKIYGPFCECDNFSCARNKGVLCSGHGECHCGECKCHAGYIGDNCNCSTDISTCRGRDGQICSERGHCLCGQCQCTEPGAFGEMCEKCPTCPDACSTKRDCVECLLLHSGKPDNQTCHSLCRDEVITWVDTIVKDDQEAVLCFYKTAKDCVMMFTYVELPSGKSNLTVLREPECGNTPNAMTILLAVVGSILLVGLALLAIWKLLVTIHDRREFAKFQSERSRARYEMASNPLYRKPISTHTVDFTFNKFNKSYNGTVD
UniProt P05106: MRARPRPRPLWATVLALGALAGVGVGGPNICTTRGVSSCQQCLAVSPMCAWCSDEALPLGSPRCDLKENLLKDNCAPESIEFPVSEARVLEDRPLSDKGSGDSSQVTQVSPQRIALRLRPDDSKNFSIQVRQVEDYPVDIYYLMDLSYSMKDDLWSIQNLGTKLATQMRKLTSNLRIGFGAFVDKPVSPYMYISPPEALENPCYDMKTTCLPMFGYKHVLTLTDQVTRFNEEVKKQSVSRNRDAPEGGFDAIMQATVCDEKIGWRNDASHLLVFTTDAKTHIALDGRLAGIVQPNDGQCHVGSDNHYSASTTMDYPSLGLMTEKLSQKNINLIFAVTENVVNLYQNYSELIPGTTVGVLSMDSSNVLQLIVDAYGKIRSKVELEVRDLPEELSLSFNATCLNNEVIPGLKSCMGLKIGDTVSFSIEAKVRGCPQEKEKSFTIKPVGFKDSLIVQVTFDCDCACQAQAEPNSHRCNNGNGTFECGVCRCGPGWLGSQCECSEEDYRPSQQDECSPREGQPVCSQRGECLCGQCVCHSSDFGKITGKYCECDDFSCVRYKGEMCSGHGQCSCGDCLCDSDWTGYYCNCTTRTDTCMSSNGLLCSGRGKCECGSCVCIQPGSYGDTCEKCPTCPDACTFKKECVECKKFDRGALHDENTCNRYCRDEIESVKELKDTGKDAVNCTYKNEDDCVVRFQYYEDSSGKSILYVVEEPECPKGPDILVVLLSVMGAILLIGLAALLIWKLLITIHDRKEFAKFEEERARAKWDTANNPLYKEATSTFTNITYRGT

Columns and labels:
integrin αVβ5 (human) [1] = biological target: T1, integrin αVβ5 (human) (UniProt P06756+P18084); assay: GST pull-down from surface-biotinylated Ch-1 lysate, Western blot (FIGS. 3D-K)
integrin αVβ3 (human) [2] = biological target: T2, integrin αVβ3 (human) (UniProt P06756+P05106); assay: as above
integrin αVβ5 (human) [3] = biological target: T1, integrin αVβ5 (human); assay: GST pull-down from surface-biotinylated Ch-1 lysate, Western blot
integrin αVβ3 (human) [4] = biological target: T2, integrin αVβ3 (human); assay: as above

Measured: binding

GST-PIIBNP (GST fusion of human Type IIB collagen amino propeptide, exons 3-8) (from UniProt P02458 30-134) (ligand)
binds: all assays above
